Molecules are shown by their SMILES. Where a name gives a salt, the structure may show the parent alone. Some of the results follow. Repeats in this data set agree poorly, so a single value says little.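 A first-round screen of about ten thousand compounds sought those raising reporter output, using human embryonic kidney cells briefly transfected with a plasmid carrying a Renilla luciferase gene driven by the HSV-TK promoter.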

In this test the test system is HEK 293FT. The test is described as follows: log relative Renilla luciferase luminescence (reporter expression vs reference, reference not stated) (log (base not stated)); higher = higher recombinant reporter expression. Conditions: 10 µM; time after transfection 48 h.
On to `CO[C@H]1C=CO[C@@]2(C)Oc3c(C)c(O)c4c(O)c(c(C=O)c(O)c4c3C2=O)NC(=O)C(C)=CC=C[C@H](C)[C@H](O)[C@@H](C)[C@@H](O)[C@@H](C)[C@H](OC(C)=O)[C@@H]1C` [3-Formylrifamycin], for which the log is -0.0993.

`CCCCCCC(=O)O[C@]1(C(C)=O)CC[C@H]2[C@@H]3CCC4=CC(=O)CC[C@]4(C)[C@H]3CC[C@@]21C` [Hydroxyprogesterone heptanoate]: the log came to 0.0267. As for `CC(=O)OCc1c(COC(C)=O)[n+](=O)c2ccccc2n1[O-]` [Quinoxidine], the log was 0.125.

For `COc1ccc(NS(=O)(=O)c2ccc(NC(=O)c3ccccc3C(=O)O)cc2)nn1` [Phthalylsulfapyridazine], the log was determined as 0.0323. Consider `Cc1cc(C)nc(Nc2nc3ccc([N+](=O)[O-])cc3[nH]2)n1`, for which the log was -0.0438. With `NC(=O)N1CCCC1=O` [Squamolone] the figure was -0.0767; with `Nc1cccc2c1CN(C1CCC(=O)NC1=O)C2=O` (centres undefined) [Lenalidomide], -1.07. With `Nc1nc2[nH]cc(CCc3ccc(C(=O)N[C@@H](CCC(=O)O)C(=O)O)cc3)c2c(=O)[nH]1` [Pemetrexed Disodium Heptahydrate] the figure was -0.707. With `C=C1CC[C@H](O)C/C1=C/C=C1\CCC[C@]2(C)[C@@H]([C@H](C)CCCC(C)C)CC[C@@H]12` [Colecalciferol] the figure was -0.0565; with `O=C(N/N=C/c1ccccc1O)c1ccccc1O` [Salicylidene salicylhydrazide], 0.193. As to `CCCCCC(=O)O[C@]1(C(C)=O)CC[C@H]2[C@@H]3CCC4=CC(=O)CC[C@]4(C)[C@H]3CC[C@@]21C` [Hydroxyprogesterone caproate], the log was -0.0675.

Regarding `Cn1c(=O)c2[nH]c(Br)nc2n(C)c1=O` [Bromotheamine], the log was 0.0555.

Take `COc1cc(Cc2cc(N)nc(N)n2)cc(OC)c1OC` [Isotrimethoprim]: the log was determined as 0.129.

`Cc1c(NC(=O)c2cccnc2)c(=O)n(-c2ccccc2)n1C` [Nifenazone]: the log turned out to be 0.171. Consider `Cc1cn([C@H]2C[C@H](N=[N+]=[N-])[C@@H](CO)O2)c(=O)[nH]c1=O` [Zidovudine], for which the log is 0.00546. For the compound `CCN(CC)c1nc2ccccc2n2cnnc12`, the log was -0.0949. Regarding `O=C1c2ccccc2-c2n[nH]c3cccc1c23` [1,9-Pyrazoloanthrone], the log came to 0.167. With `CCC(=O)O[C@]1(C(=O)SCF)[C@H](C)C[C@H]2[C@@H]3C[C@H](F)C4=CC(=O)C=C[C@]4(C)[C@@]3(F)[C@@H](O)C[C@@]21C` [Fluticasone Propionate] the figure was -0.135.

Consider `O=C1c2ccccc2C(=O)c2c(O)ccc(O)c21` [Quinizarin], for which the log was determined as 0.114.

As to `Oc1ccc(Cl)cc1Sc1cc(Cl)ccc1O` [Fenticlor], the log is -0.0398. The value for `O=c1cc(-c2ccc(O)cc2)oc2ccc(O)cc12` was 0.0334; that for `O=C(O)c1cc(O)c2c(c1)C(=O)c1cccc(O)c1C2=O` [Rhein] was -0.346. The value for `COc1cc2nc(N3CCN(C(=O)C4COc5ccccc5O4)CC3)nc(N)c2cc1OC` (centres undefined) [Doxazosin Mesylate] was 0.0416; that for `COc1cc(/C=N/NC(=O)c2ccncc2)ccc1O` [Ftivazide] was 0.118.

Take `N=C(N)NC(=N)NCCc1ccccc1` [Phenformin Hydrochloride]: the log was -0.0295. With `CCN(CC)CCOc1ccccc1C(=O)CCc1ccccc1` [Etafenone] the figure was 0.0125; with `O=c1cc(-c2ccc(O)c(O)c2)oc2cc(O[C@@H]3O[C@H](CO)[C@@H](O)[C@H](O)[C@H]3O)cc(O)c12` [Cynaroside], 0.115; with `C[C@@H]1O[C@@H](O[C@H]2[C@H](OC(=O)[C@]34CCC(C)(C)C[C@H]3C3=CC[C@@H]5[C@@]6(C)C[C@H](O)[C@@H]7O[C@@H]8O[C@H](CO)[C@@H](O)[C@H](O)[C@H]8O[C@@H]8OC[C@H](O)[C@H](O)[C@H]8OC(=O)CC(C)(O)CC(=O)OC[C@@]7(C)[C@@H]6CC[C@@]5(C)[C@]3(C)CC4)OC[C@H](O)[C@@H]2O)[C@H](O)[C@H](O[C@@H]2OC[C@@H](O)[C@H](O)[C@H]2O)[C@H]1O` (some centres undefined) [Tubeimoside A], -0.0101.

On to `CCCCCCCCCC(=O)N[C@H]1[C@H](Oc2c3cc4cc2Oc2ccc(cc2Cl)[C@@H](O[C@@H]2O[C@H](CO)[C@@H](O)[C@H](O)[C@H]2NC(C)=O)[C@@H]2NC(=O)[C@H](NC(=O)[C@@H]4NC(=O)[C@H]4NC(=O)[C@@H](Cc5ccc(c(Cl)c5)O3)NC(=O)[C@H](N)c3ccc(O)c(c3)Oc3cc(O)cc4c3)c3ccc(O)c(c3)-c3c(OC4O[C@H](CO)[C@@H](O)[C@H](O)[C@@H]4O)cc(O)cc3[C@@H](C(=O)O)NC2=O)O[C@H](CO)[C@@H](O)[C@@H]1O` (some centres undefined) [Teicoplanin], for which the log is -0.285.

The values are drawn from the supplement of paper PMC7024190.
